The nature of the test: qHTS Assay for Modulators of Lamin A Splicing. The following applies: HeLa LMNA splicing GFP/RFP minigene ratio, 48 h. The essentials:
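S3 HeLa cells stably expressing lamin A-EGFP splicing minigene plus DsRed2, 600 cells/well, 48 h compound exposure at 37C. Laser-scanning cytometry; analysed as GFP (500-530 nm)/RFP (575-640 nm) total intensity ratio; 0.5% DMSO vehicle.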
(In general: Quantitative high-throughput screening tests each substance at several concentrations.)

The mark [1] stands for this setting: measured here: GFP splicing reporter channel.
Setting [2] is: measured here: RFP viability control channel.

Some of the results follow. Shown are side measurements of this screen, not its main read-out; they come without a call. Most of these compounds were active or inconclusive in the main read-out, so they are no random draw. The note in brackets gives the kind of curve behind each potency; many fits are weak.

Consider 54 compounds from PubChem BioAssay AID1487 (National Center for Advancing Translational Sciences (NCATS), 2009).

Usually AC50 stands for the concentration giving half of the maximal activity seen.

On to `O=C(NC1=NCCS1)c1sc2ccccc2c1Cl`, for which the AC50 is, setting by setting: under setting [1], 22.4 µM [rising, single point]; under setting [2], 22.4 µM [rising, single point].

On to `CNc1nc(Cl)nc(Nc2ccccc2)n1`, for which, under setting [2], the concentration at half-maximal activity (AC50) was 6.31 µM [rising, full curve, poor fit].

In the case of `Cc1[nH]c2ccccc2c1C(=O)CN1CCSCC1`, the concentration at half-maximal activity (AC50) under setting [2] was 8.91 µM [rising, partial curve, poor fit].

`Cc1ccc(-n2ncc(C(=O)NCc3ccc4c(c3)OCO4)c2NC(=O)c2ccco2)cc1C`: the concentration at half-maximal activity (AC50) runs as follows: under setting [1], 3.98 µM [rising, full curve, poor fit]; under setting [2], 2.82 µM [rising, full curve, poor fit].

For the compound `Cc1cc(/C=C2/C(=N)N3C(c4ccccc4)=CSC3=NC2=O)c(C)n1-c1ccccc1`, the AC50 under setting [2] is 17.8 µM [rising, partial curve, poor fit].

For the compound `COCCCNCCCOc1ccc(C(C)(C)c2ccccc2)cc1`, the AC50 was 3.98 µM [rising, partial curve] under setting [1] and 0.501 µM [rising, full curve, poor fit] under setting [2].

Consider `CCOCCCNC(=O)c1ccccc1OC1CCN(S(C)(=O)=O)CC1`, for which the half-maximal activity concentration (AC50) under setting [2] was 0.0141 µM [rising, full curve, poor fit].

Take `COc1cc(CC(NC(C)=O)C(=O)NC2CCN(C(=O)C3CC3)CC2)cc(OC)c1` (stereo unspecified): the concentration at half-maximal activity (AC50) under setting [1] is 2.82 µM [rising, single point].

Take `COc1cc(NC(=S)NCCSc2ccc(C)cc2)cc(OC)c1`: the half-maximal activity concentration (AC50) under setting [2] was 35.5 µM [rising, single point].

Consider `CC1CCc2c(nc3ncnn3c2N2CCN(c3ccccc3)CC2)C1` (stereo unspecified), for which the concentration at half-maximal activity (AC50) reads like this: under setting [1], 17.8 µM [rising, partial curve, poor fit]; under setting [2], 14.1 µM [rising, single point].

Consider `COC(=O)Nc1ccc2c(c1)N(C(=O)CCN1CCN3CCCC3C1)c1ccccc1S2` (stereo unspecified), for which the half-maximal activity concentration (AC50) under setting [2] is 35.5 µM [rising, single point].

In the case of `Cc1cccc(Cn2cc(/C=C/[N+](=O)[O-])c3ccccc32)c1`, the half-maximal activity concentration (AC50) under setting [1] was 22.4 µM [falling, single point] and the AC50 under setting [2] was 25.1 µM [falling, partial curve].

As for `CCc1ccc(S(=O)(=O)c2cn(C)c3cc(N4CCOCC4)c(F)cc3c2=O)cc1`, the concentration at half-maximal activity (AC50) is 22.4 µM [falling, partial curve] under setting [1] and 11.2 µM [falling, partial curve] under setting [2].

Consider `CCOC(=O)/C(=C\c1cn(C)c2ccccc12)[N+](=O)[O-]`, for which the concentration at half-maximal activity (AC50) under setting [2] is 35.5 µM [rising, single point].

On to `O=c1[nH]n2c(=O)c3c([nH]c2c1N=Nc1cccc(Cl)c1)CCC3`, for which the AC50 is 31.6 µM [rising, single point] under setting [1] and 31.6 µM [rising, single point] under setting [2].

For `COc1ccc(-c2nc(-c3cc4cc(Br)ccc4oc3=O)cs2)cc1`, the half-maximal activity concentration (AC50) under setting [1] is 12.6 µM [rising, partial curve].

`COc1ccccc1CNC(=O)c1ccc(S(=O)(=O)N2CCCC2)cc1`: the AC50 reads like this: under setting [1], 14.1 µM [rising, single point]; under setting [2], 11.2 µM [rising, single point].

On to `N#CC(Cc1ccc(O)c(O)c1)C(=O)N1CCc2ccccc21` (stereo unspecified), for which the half-maximal activity concentration (AC50) is, setting by setting: under setting [1], 12.6 µM [falling, partial curve]; under setting [2], 11.2 µM [falling, partial curve].

Take `CN1/C(=C\C(=S)NC(=O)c2cccc(Br)c2)C(C)(C)c2ccccc21`: the half-maximal activity concentration (AC50) under setting [2] is 35.5 µM [rising, partial curve, poor fit].

On to `O=C(O)/C(=C/c1c(C(=O)O)[nH]c2cc(Cl)cc(Cl)c12)c1ccccc1`, for which the half-maximal activity concentration (AC50) runs as follows: under setting [1], 5.62 µM [falling, partial curve, poor fit]; under setting [2], 6.31 µM [falling, partial curve, poor fit].

For the compound `CS(=O)(=O)N1CCN(c2ccccc2NC(=O)c2cccc3ccccc23)CC1`, the AC50 under setting [2] is 5.62 µM [rising, partial curve, poor fit].

Turning to `Cc1nn(Cc2cccc(C(=O)Nc3ccn(Cc4c(F)c(F)cc(F)c4F)n3)c2)c(C)c1[N+](=O)[O-]`, the half-maximal activity concentration (AC50) under setting [2] is 7.08 µM [falling, full curve, poor fit].

With `O=C(NNC(=O)C1CCCN(S(=O)(=O)c2cccc(F)c2)C1)C1CC1` (stereo unspecified), the half-maximal activity concentration (AC50) under setting [1] is 7.08 µM [falling, partial curve].

With `Cc1cc(C)cc(N=Cc2ccc([N+](=O)[O-])s2)c1`, the half-maximal activity concentration (AC50) runs as follows: under setting [1], 7.94 µM [falling, partial curve, poor fit]; under setting [2], 0.891 µM [falling, full curve, poor fit].

For the compound `O=C(Nc1ccc(Br)cc1)c1ccc(F)c(S(=O)(=O)NC2CCCCCC2)c1`, the half-maximal activity concentration (AC50) is, setting by setting: under setting [1], 22.4 µM [falling, single point]; under setting [2], 15.8 µM [falling, single point].

Take `O=C(/C=C\c1ccco1)c1ccc(NC(=O)c2ccco2)cc1`: under setting [1], the AC50 was 1.12 µM [falling, full curve, poor fit].

For the compound `Cc1ccccc1-c1nc(SCC(=O)NCc2ccc(F)cc2)c2c(=O)n(C)c(=O)n(C)c2n1`, the half-maximal activity concentration (AC50) under setting [1] is 0.316 µM [rising, full curve, poor fit].

As to `CCOc1ccc(NC(=NCc2ccc3c(c2)OCO3)SC2CC(=O)N(c3ccc(C(=O)O)cc3)C2=O)cc1` (stereo unspecified), the half-maximal activity concentration (AC50) under setting [2] is 31.6 µM [rising, single point].

On to `O=S(=O)(/C=C/c1ccccc1)NC1CCCCCCC1`, for which, under setting [1], the half-maximal activity concentration (AC50) is 11.2 µM [rising, single point].

Regarding `COc1ccc(Cl)cc1C(=O)N(Cc1nc(-c2cccc(C)c2)no1)C(C)C`, the AC50 under setting [2] is 35.5 µM [rising, single point].

Consider `COc1ccc(CCNc2ncnc3sccc23)cc1OC`, for which the half-maximal activity concentration (AC50) under setting [2] was 0.01 µM [falling, full curve, poor fit].

On to `Cc1ccc(C)c(N2CCN(CCCNC(=O)c3ccc4nc(CCc5ccccc5)oc4c3)CC2)c1`, for which the AC50 by setting is: under setting [1], 10 µM [falling, partial curve]; under setting [2], 12.6 µM [falling, partial curve].

Turning to `Cc1cc(C)c2c(NC(=O)c3ccccc3)c(C(=O)Nc3ccc(F)cc3)sc2n1`, the AC50 under setting [2] was 0.00447 µM [falling, full curve, poor fit].

As for `CN(C(=S)NC(=O)/C=C/c1ccc(F)cc1)C1CCCCC1`, the AC50 under setting [2] is 0.708 µM [falling, partial curve, poor fit].

Consider `Cc1ccc(C(=O)CSc2nc(C)cc(C)c2C(N)=O)cc1`, for which the AC50 under setting [2] is 11.2 µM [rising, partial curve].

Turning to `CCOc1ccc(N2CC(NC(=O)C3CCCC3)CC2=O)cc1` (stereo unspecified), the AC50 under setting [1] is 0.0447 µM [falling, full curve, poor fit].

Turning to `O=C(CSCc1cccc(Br)c1)NC1CC1`, the half-maximal activity concentration (AC50) under setting [1] is 12.6 µM [rising, single point].

On to `CSCCC(NS(=O)(=O)c1ccc(Cl)cc1)C(=O)OCc1cccc(Cl)c1` (stereo unspecified), for which the AC50 runs as follows: under setting [1], 0.891 µM [rising, partial curve]; under setting [2], 35.5 µM [rising, single point].

Consider `COc1ccc(-c2nn3c(-c4ccccc4)nnc3s2)cc1`, for which the half-maximal activity concentration (AC50) under setting [2] is 35.5 µM [rising, single point].

Turning to `CC(C)c1ccc(/C=C/C(=O)N2CCc3ccccc3C2)cc1`, under setting [2], the AC50 is 35.5 µM [rising, single point].

On to `CCOC(=O)C1(Cc2ccccc2)CCN(Cc2ccc(C)s2)CC1`, for which, under setting [1], the concentration at half-maximal activity (AC50) was 35.5 µM [falling, single point].

As for `COc1ccc(C(=O)c2sc(Nc3ccccc3)nc2N)cc1`, the AC50 under setting [1] was 2.82 µM [falling, partial curve, poor fit] and the half-maximal activity concentration (AC50) under setting [2] was 12.6 µM [falling, partial curve, poor fit].

Consider `Cc1cc(Cl)c(OCCCN2CCCCC2)c(Br)c1`, for which the AC50 under setting [2] was 7.94 µM [rising, partial curve].

Regarding `COC(=O)C1=C(CSc2nc3ccccc3s2)NC(=O)NC1c1ccc(F)cc1` (stereo unspecified), the AC50 runs as follows: under setting [1], 14.1 µM [rising, partial curve]; under setting [2], 12.6 µM [rising, single point].

Regarding `OCCN1CCN(CC(O)C(F)(F)F)CC1` (stereo unspecified), the half-maximal activity concentration (AC50) under setting [2] was 0.355 µM [rising, partial curve].

With `CN1CCC(N(C)C(=O)CCc2nc3ccccc3n2-c2ccccc2)CC1`, the AC50 under setting [2] was 5.62 µM [falling, single point].

For the compound `CCCCCCC(C)n1cc(C(C)=O)c(=O)n(C)c1=O` (stereo unspecified), under setting [2], the AC50 was 35.5 µM [rising, single point].

As to `Cc1c(C(=O)O)oc2c1/C(=N\O)CC(C)(C)C2`, the half-maximal activity concentration (AC50) reads like this: under setting [1], 14.1 µM [rising, single point]; under setting [2], 0.0224 µM [rising, full curve, poor fit].

For the compound `CN1C(=O)/C(=C/c2ccccc2OCc2ccc(F)cc2)N(C)C1=S`, the AC50 under setting [2] is 0.112 µM [rising, full curve, poor fit].

Regarding `Cc1ccc(CN2CCc3c(OCC(=O)Nc4cccc(C)c4C)cccc3C2=O)cc1`, the AC50 under setting [1] is 1.41 µM [rising, partial curve, poor fit] and the concentration at half-maximal activity (AC50) under setting [2] is 0.794 µM [rising, partial curve].

For `Oc1c(C(c2ccco2)N2CCN(C(c3ccccc3)c3ccccc3)CC2)sc2ncnn12` (stereo unspecified), the concentration at half-maximal activity (AC50) is, setting by setting: under setting [1], 35.5 µM [rising, single point]; under setting [2], 35.5 µM [rising, single point].

Take `CCOC(=O)Cn1c(=O)n(C2CCCCC2)c2nc(-c3c(F)cccc3Cl)nc(C(N)=O)c21`: the AC50 under setting [1] was 12.6 µM [rising, single point] and the half-maximal activity concentration (AC50) under setting [2] is 3.55 µM [rising, partial curve].

Consider `CN1CCN(C(=O)c2ccccc2Nc2ccc(SC(F)F)cc2)CC1`, for which the concentration at half-maximal activity (AC50) reads like this: under setting [1], 14.1 µM [rising, single point]; under setting [2], 35.5 µM [rising, single point].

In the case of `COc1cc(C(=O)Nc2nc(-c3ccc(C)cc3)cs2)ccc1OCC(=O)N1CCOCC1`, the AC50 runs as follows: under setting [1], 12.6 µM [rising, single point]; under setting [2], 20 µM [rising, single point].
